Laboratory results as given in publication PMC9112552.
Results are given in words; binding and its absence hold for the method and conditions named. In cells and extracts the contact can be indirect. Some results given as binding are weak or reduced against the parent protein; the word gives no strength.

By UniProt entry, the sequences of proteins in these tests, tags left out.
UniProt O88275: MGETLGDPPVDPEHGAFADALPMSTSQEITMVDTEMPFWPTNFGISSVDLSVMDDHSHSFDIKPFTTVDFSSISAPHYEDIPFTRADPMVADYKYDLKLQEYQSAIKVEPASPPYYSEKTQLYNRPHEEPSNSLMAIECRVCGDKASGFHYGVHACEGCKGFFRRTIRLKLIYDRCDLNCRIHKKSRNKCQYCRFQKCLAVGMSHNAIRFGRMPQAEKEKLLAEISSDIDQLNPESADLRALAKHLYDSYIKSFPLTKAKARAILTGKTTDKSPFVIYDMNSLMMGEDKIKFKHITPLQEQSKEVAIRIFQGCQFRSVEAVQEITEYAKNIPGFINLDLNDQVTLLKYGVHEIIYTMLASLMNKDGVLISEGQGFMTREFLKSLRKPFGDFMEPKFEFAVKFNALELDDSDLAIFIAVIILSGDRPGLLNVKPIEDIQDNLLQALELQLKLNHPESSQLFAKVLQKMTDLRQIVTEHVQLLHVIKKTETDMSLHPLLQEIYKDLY

Molecular target: Peroxisome proliferative activated receptor, gamma (PPARG) (rat (endogenous in H9c2)) (UniProt O88275)
Test: co-IP; H9c2 cell lysates incubated with 2 ug PPARG antibody overnight at 4 °C, protein A/G plus agarose beads 1 h at 4 °C, washed 4 times with lysis buffer, Western blot; cells with or without Miat overexpression

- binding: binds
B1: Retinoid X receptor alpha (RXRA) (protein, UniProt Q05343 1-467)
chain: MDTKHFLPLDFSTQVNSSSLSSPTGRGSMAAPSLHPSLGPGLGSPLGSPGQLHSPISTLSSPINGMGPPFSVISSPMGPHSMSVPTTPTLGFETGSPQLNSPMNPVSSSEDIKPPLGLNGVLKVPAHPSGNMSSFTKHICAICGDRSSGKHYGVYSCEGCKGFFKRTVRKDLTYTCRDNKDCLIDKRQRNRCQYCRYQKCLAMGMKREAVQEERQRGKDRNENEVESTSSANEDMPVEKILEAELAVEPKTETYVEANMGLNPSSPNDPVTNICQAADKQLFTLVEWAKRIPHFSELPLDDQVILLRAGWNELLIASFSHRSIAVKDGILLATGLHVHRNSAHSAGVGAIFDRVLTELVSKMRDMQMDKTELGCLRAIVLFNPDSKGLSNPAEVEALREKVYASLEAYCKHKYPEQPGRFAKLLLRLPALRSIGLKCLEHLFFFKLIGDTPIDTFLMEMLEAPHQTT
